No constants are given. Whether binding was seen depends on the method and setting. Binding seen in cells or lysates may run through a third protein. For part of these data: Sequences can lack the tags named with a protein.
Tests used:
Test in all cases: split reporter; SFLC in living Arabidopsis mesophyll protoplasts: Aux/IAA-FLucN or MYB30-FLucN co-expressed with ARFCTD-FLucC or Aux/IAA-FLucC for 6 hr; 10 µg of each construct, 2×10^4 cells, 96-well plate, D-luciferin; relative activity standardised against ARF5CTD-FLucC + IAA28-FLucN
IAA14-FLucC = biological target: T1, IAA14-FLucC (Arabidopsis, UniProt Q38832 1-228)
T1 construct: Arabidopsis Aux/IAA protein IAA14; also called Aux/IAA-FLucC; source: Arabidopsis mesophyll protoplasts, transfected, in living cells; not shown: FLucC (firefly luciferase aa 394-550)
T1 sequence (looked up): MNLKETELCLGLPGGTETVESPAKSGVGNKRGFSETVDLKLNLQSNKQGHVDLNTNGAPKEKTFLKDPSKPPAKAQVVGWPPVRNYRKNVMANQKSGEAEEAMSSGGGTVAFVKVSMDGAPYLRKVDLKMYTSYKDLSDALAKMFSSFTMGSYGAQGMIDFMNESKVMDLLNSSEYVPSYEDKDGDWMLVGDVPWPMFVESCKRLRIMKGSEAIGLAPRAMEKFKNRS

Amino acid sequences for entries named in this document (tags omitted).
UniProt P93830: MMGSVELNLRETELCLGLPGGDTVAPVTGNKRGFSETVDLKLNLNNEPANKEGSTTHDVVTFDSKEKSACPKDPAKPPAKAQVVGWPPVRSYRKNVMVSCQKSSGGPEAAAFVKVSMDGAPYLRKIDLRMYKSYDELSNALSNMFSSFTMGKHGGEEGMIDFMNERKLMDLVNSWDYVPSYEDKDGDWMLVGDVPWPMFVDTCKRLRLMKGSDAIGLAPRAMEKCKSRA

IAA17-FLucC = biological target: T2, IAA17-FLucC (Arabidopsis, UniProt P93830 1-229)
T2 construct: Arabidopsis Aux/IAA protein IAA17; also called Aux/IAA-FLucC; source: Arabidopsis mesophyll protoplasts, transfected, in living cells; not shown: FLucC (firefly luciferase aa 394-550)

IAA13-FLucC = biological target: T3, IAA13-FLucC (Arabidopsis, UniProt Q38831 1-247)
T3 construct: Arabidopsis Aux/IAA protein IAA13; also called Aux/IAA-FLucC; source: Arabidopsis mesophyll protoplasts, transfected, in living cells; not shown: FLucC (firefly luciferase aa 394-550)
T3 sequence (looked up): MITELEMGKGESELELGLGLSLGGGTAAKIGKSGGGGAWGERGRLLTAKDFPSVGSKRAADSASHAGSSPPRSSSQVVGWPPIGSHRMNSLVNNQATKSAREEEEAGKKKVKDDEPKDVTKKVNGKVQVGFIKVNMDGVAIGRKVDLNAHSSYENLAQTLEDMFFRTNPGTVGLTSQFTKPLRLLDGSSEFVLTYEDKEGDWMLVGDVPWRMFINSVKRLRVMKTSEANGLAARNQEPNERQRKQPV

IAA7-FLucC = biological target: T4, IAA7-FLucC (Arabidopsis, UniProt Q38825 1-243)
T4 construct: Arabidopsis Aux/IAA protein IAA7; also called Aux/IAA-FLucC; source: Arabidopsis mesophyll protoplasts, transfected, in living cells; not shown: FLucC (firefly luciferase aa 394-550)
T4 sequence (looked up): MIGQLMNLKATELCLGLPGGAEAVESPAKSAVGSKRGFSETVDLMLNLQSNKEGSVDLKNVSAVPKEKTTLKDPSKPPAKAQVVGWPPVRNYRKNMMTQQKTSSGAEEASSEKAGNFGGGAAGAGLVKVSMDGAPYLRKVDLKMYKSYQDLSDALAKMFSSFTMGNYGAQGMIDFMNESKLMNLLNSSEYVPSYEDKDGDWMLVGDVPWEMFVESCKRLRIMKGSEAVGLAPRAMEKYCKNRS

IAA6-FLucC = biological target: T5, IAA6-FLucC (Arabidopsis, UniProt Q38824 1-189)
T5 construct: Arabidopsis Aux/IAA protein IAA6; also called Aux/IAA-FLucC; source: Arabidopsis mesophyll protoplasts, transfected, in living cells; not shown: FLucC (firefly luciferase aa 394-550)
T5 sequence (looked up): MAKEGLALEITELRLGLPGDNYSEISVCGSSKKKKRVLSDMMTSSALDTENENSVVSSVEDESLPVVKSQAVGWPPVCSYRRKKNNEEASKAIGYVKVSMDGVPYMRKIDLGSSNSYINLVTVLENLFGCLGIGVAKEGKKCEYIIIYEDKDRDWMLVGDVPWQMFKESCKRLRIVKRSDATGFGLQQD

IAA18-FLucC = biological target: T6, IAA18-FLucC (Arabidopsis, UniProt O24408 1-267)
T6 construct: Arabidopsis Aux/IAA protein IAA18; also called Aux/IAA-FLucC; source: Arabidopsis mesophyll protoplasts, transfected, in living cells; not shown: FLucC (firefly luciferase aa 394-550)
T6 sequence (looked up): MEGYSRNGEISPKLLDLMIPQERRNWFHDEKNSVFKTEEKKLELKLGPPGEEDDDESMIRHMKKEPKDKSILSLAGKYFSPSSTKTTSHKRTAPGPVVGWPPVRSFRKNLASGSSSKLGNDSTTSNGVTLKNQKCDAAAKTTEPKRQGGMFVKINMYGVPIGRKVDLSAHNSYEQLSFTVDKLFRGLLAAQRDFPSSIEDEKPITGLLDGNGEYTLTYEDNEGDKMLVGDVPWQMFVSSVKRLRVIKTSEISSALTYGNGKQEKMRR

B1: MYB30-FLucN (natural protein, UniProt Q9SCU7 1-323, looked up)
chain: MVRPPCCDKGGVKKGPWTPEEDIILVTYIQEHGPGNWRAVPTNTGLLRCSKSCRLRWTNYLRPGIKRGNFTEHEEKMIVHLQALLGNRWAAIASYLPQRTDNDIKNYWNTHLKKKLNKVNQDSHQELDRSSLSSSPSSSSANSNSNISRGQWERRLQTDIHLAKKALSEALSPAVAPIITSTVTTTSSSAESRRSTSSASGFLRTQETSTTYASSTENIAKLLKGWVKNSPKTQNSADQIASTEVKEVIKSDDGKECAGAFQSFSEFDHSYQQAGVSPDHETKPDITGCCSNQSQWSLFEKWLFEDSGGQIGDILLDENTNFF
notes: transcription factor MYB30, the unrelated protein used as negative control; source: Arabidopsis mesophyll protoplasts, transfected, in living cells; not shown: FLucN (firefly luciferase aa 1-398)
binding (IAA14-FLucC): no binding (tested: relative luciferase activity below 0.1)
binding (IAA17-FLucC): no binding (tested: relative luciferase activity below 0.1)
binding (IAA13-FLucC): no binding (tested: relative luciferase activity below 0.1)
binding (IAA7-FLucC): no binding (tested: relative luciferase activity below 0.1)
binding (IAA6-FLucC): no binding (tested: relative luciferase activity below 0.1)
binding (IAA18-FLucC): no binding (tested: relative luciferase activity below 0.1)
